US20240102023
For some assays here: Construct, isoform or probe ends are uncertain for at least one entry. For some assays here: Negatives hold for the conditions tested.

Sequences of proteins named here, by UniProt entry; tags and fusion partners are left off.
UniProt Q15648, whole entry: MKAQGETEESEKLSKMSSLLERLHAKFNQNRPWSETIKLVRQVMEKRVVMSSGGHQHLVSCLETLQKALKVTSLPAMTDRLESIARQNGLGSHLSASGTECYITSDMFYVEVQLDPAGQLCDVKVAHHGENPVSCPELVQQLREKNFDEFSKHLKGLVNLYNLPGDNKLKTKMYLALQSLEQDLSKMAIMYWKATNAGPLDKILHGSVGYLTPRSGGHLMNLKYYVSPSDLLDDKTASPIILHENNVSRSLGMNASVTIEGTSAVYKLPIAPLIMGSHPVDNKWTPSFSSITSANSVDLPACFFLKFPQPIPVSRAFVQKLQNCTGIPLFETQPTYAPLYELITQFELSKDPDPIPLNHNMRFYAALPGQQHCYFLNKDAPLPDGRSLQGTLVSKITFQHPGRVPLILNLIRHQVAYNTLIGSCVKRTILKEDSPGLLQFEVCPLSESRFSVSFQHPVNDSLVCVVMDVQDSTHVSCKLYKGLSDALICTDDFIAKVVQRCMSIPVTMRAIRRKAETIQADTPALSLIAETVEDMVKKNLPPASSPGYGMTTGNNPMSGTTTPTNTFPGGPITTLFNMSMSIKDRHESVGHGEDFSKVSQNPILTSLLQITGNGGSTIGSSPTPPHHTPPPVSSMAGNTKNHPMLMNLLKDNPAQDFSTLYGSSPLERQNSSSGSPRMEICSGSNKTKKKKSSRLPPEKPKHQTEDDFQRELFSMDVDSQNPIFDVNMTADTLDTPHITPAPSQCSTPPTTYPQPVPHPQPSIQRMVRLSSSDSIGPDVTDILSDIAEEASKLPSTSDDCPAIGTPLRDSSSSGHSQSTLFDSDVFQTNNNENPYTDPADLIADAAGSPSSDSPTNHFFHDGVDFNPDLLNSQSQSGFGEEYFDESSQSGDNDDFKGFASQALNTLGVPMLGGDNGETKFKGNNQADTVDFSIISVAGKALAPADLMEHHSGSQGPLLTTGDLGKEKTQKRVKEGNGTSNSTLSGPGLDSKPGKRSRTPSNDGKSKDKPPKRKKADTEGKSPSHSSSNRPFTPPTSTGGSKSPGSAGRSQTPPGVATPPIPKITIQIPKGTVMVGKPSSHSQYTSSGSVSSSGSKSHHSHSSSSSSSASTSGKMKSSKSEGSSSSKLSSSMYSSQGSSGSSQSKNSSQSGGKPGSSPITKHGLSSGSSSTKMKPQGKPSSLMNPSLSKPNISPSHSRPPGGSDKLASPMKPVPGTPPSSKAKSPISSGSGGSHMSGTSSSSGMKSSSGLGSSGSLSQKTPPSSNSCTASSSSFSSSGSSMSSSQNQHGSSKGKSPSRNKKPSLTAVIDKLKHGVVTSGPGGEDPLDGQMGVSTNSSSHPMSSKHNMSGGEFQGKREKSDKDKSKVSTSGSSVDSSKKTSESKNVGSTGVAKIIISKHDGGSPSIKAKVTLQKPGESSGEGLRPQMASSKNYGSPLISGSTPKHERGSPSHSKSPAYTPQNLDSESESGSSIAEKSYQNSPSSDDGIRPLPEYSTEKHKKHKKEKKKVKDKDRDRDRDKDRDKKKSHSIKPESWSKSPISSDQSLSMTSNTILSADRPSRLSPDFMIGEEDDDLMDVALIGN

What was measured:
[1] = biological target: MED1 (nuclear extract) (Homo sapiens) (UniProt Q15648); experiment: inhibition of the protein; settings: 2'-F on U and C; 2 ug SP disrupts ER/MED1 from HeLa nuclear extract; protein in an extract; protein details: HeLa nuclear extract; variant of Aptamer P
[2] = test system: MED1 WT (LXXLL motif protein); experiment: inhibition of the protein; settings: 2'-F on U and C, purified recombinant protein, dose not given here
[3] = test system: MED1 Mutant (LXXAA motif protein); experiment: pull-down; settings: 2'-F on U and C; LXXAA mutant control; purified recombinant protein; protein details: immobilized
[4] = test system: MED1 WT (LXXLL motif protein); experiment: pull-down; settings: 2'-F on U and C, 2 h 4 C, BC150 wash, purified recombinant protein

Row | Sequence | functional effect of the aptamer [1] | functional effect of the aptamer ([2]; blocks GST-ER/MED1 WT interaction in GST pull-down, 4 h 4 C, E2, variant of Aptamer P) | binding result [3] | binding result ([4]; full P with flanks printed as SEQ 11) | functional effect of the aptamer [2] | binding result [4] | binding result ([4]; immobilized protein, constant flanks possibly present)
1 | GAAGACACGAGAGGAUCCACAUUUUCGGAUCAGUGCGCUUUGACGCAAUCUUC [MED1SP (shortened P)] | active | active | – | – | – | – | –
2 | GGAAGACACGAGAGGAUCCACCAUUUUCGGAUCAGUGCGCUUUGACGCAAUCUUCCACAACCAGAAUUCAGACGAGCUGUGC [Aptamer P] | – | – | no binding | binds | active | – | –
3 | GGAAGACACGAGAGGAUCCACCGGAAAGGCGAGAGUGUUCAAAGAACCAGCAGUCCACAAUCAGAAUUCAGACGAGCUGUGC [Aptamer G] | – | – | no binding | – | active | binds | –
4 | GGAAGACACGAGAGGAUCCACCUUUUCGGAUGGAGAUGCUUUGUCAUUUGUGUCUUGCACCAGAAUUCAGACGAGCUGUGC [Aptamer O] | – | – | no binding | – | active | binds | –
5 | GGAAGACACGAGAGGAUCCACCUUUUCGGGUCCCGUUUAACCUUGUUAACCGUCUUCCUGCCAGAAUUCAGACGAGCUGUGC [Aptamer K] | – | – | no binding | – | active | binds | –
6 | GGAAGACACGAGAGGAUCCACGCGAUGGGUAAUCAACUGCAUCUCCCGUACAGGUUACCACAGAAUUCAGACGAGCUGUGC [Aptamer B] | – | – | no binding | – | active | – | binds
7 | GGAAGACACGAGAGGAUCCACUGACAUGUGACUGGAGUUCAGACGUGUGCUCUUCCGAUCUCAGAAUUCAGACGAGCUGUGC [Aptamer X] | – | – | no binding | – | active | binds | –
